No constants are given. Whether binding was seen depends on the method and setting. In cells and extracts the contact can be indirect. Some entries that bind do so weakly or less than the wild type. For part of these data: Sequences can lack the tags named with a protein. One block for each binder: values may come before it.
Legend:
[1] = target: T1, FLAG-tagged human ZBP1 (Flag-hZBP1) (human), Q9H171; test: co-IP; settings: remark: other sources report otherwise
T1 chain: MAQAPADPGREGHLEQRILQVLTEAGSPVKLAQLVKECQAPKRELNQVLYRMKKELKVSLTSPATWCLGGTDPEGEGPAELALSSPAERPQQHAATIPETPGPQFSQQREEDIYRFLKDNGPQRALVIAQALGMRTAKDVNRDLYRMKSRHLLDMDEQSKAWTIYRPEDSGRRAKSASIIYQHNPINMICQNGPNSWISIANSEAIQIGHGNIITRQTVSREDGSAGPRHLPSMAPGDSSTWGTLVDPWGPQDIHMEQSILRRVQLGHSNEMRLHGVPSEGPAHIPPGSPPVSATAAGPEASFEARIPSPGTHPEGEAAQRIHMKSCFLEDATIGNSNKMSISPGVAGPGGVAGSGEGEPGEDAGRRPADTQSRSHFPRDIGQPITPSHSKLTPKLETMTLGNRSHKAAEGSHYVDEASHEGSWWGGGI

[2] = target: T2, mouse ZBP1 (mZBP1) expressed in HT29 cells (mouse), Q9QY24; test: co-IP; settings: remark: other sources report otherwise
T2 chain: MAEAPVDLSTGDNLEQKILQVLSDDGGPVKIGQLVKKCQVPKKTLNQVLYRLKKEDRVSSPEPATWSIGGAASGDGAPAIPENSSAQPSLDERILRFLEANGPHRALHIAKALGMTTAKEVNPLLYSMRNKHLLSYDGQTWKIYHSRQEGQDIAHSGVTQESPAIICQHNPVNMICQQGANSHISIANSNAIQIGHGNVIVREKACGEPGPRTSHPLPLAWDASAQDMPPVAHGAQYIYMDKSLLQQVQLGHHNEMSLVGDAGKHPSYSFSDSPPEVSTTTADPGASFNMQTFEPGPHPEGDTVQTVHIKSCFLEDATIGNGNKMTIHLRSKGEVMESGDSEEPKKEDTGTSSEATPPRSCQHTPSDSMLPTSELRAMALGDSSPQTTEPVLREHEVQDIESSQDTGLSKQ

binding [1]: binds
binding [2]: binds
B1: RIPK1 (endogenous, human cells), Q13546 1-671 (protein)
chain: MQPDMSLNVIKMKSSDFLESAELDSGGFGKVSLCFHRTQGLMIMKTVYKGPNCIEHNEALLEEAKMMNRLRHSRVVKLLGVIIEEGKYSLVMEYMEKGNLMHVLKAEMSTPLSVKGRIILEIIEGMCYLHGKGVIHKDLKPENILVDNDFHIKIADLGLASFKMWSKLNNEEHNELREVDGTAKKNGGTLYYMAPEHLNDVNAKPTEKSDVYSFAVVLWAIFANKEPYENAICEQQLIMCIKSGNRPDVDDITEYCPREIISLMKLCWEANPEARPTFPGIEEKFRPFYLSQLEESVEEDVKSLKKEYSNENAVVKRMQSLQLDCVAVPSSRSNSATEQPGSLHSSQGLGMGPVEESWFAPSLEHPQEENEPSLQSKLQDEANYHLYGSRMDRQTKQQPRQNVAYNREEERRRRVSHDPFAQQRPYENFQNTEGKGTAYSSAASHGNAVHQPSGLTSQPQVLYQNNGLYSSHGFGTRPLDPGTAGPRVWYRPIPSHMPSLHNIPVPETNYLGNTPTMPFSSLPPTDESIKYTIYNSTGIQIGAYNYMEIGGTSSSLLDSTNTNFKEEPAAKYQAIFDNTTSLTDKHLDPIRENLGKHWKNCARKLGFTQSQIDEIDHDYERDGLKEKVYQMLQKWVMREGIKGATVGKLAQALHQCSRIDLLSSLIYVSQN

binding [2]: binds
B2: RIPK3 (endogenous, human cells), Q9Y572 1-518 (protein)
chain: MSCVKLWPSGAPAPLVSIEELENQELVGKGGFGTVFRAQHRKWGYDVAVKIVNSKAISREVKAMASLDNEFVLRLEGVIEKVNWDQDPKPALVTKFMENGSLSGLLQSQCPRPWPLLCRLLKEVVLGMFYLHDQNPVLLHRDLKPSNVLLDPELHVKLADFGLSTFQGGSQSGTGSGEPGGTLGYLAPELFVNVNRKASTASDVYSFGILMWAVLAGREVELPTEPSLVYEAVCNRQNRPSLAELPQAGPETPGLEGLKELMQLCWSSEPKDRPSFQECLPKTDEVFQMVENNMNAAVSTVKDFLSQLRSSNRRFSIPESGQGGTEMDGFRRTIENQHSRNDVMVSEWLNKLNLEEPPSSVPKKCPSLTKRSRAQEEQVPQAWTAGTSSDSMAQPPQTPETSTFRNQMPSPTSTGTPSPGPRGNQGAERQGMNWSCRTPEPNPVTGRPLVNIYNCSGVQVGDNNYLTMQQTTALPTWGLAPSGKGRGLQHPPPVGSQEGPKDPEAWSRPQGWYNHSGK
